Among the data in publication PMC2697329 are binding values, retold here.

Chains of the proteins cited; added tags and fusions are not shown. Lines headed by an entry give the natural chain unless they say otherwise; changes in a name come on top.
UniProt P27619: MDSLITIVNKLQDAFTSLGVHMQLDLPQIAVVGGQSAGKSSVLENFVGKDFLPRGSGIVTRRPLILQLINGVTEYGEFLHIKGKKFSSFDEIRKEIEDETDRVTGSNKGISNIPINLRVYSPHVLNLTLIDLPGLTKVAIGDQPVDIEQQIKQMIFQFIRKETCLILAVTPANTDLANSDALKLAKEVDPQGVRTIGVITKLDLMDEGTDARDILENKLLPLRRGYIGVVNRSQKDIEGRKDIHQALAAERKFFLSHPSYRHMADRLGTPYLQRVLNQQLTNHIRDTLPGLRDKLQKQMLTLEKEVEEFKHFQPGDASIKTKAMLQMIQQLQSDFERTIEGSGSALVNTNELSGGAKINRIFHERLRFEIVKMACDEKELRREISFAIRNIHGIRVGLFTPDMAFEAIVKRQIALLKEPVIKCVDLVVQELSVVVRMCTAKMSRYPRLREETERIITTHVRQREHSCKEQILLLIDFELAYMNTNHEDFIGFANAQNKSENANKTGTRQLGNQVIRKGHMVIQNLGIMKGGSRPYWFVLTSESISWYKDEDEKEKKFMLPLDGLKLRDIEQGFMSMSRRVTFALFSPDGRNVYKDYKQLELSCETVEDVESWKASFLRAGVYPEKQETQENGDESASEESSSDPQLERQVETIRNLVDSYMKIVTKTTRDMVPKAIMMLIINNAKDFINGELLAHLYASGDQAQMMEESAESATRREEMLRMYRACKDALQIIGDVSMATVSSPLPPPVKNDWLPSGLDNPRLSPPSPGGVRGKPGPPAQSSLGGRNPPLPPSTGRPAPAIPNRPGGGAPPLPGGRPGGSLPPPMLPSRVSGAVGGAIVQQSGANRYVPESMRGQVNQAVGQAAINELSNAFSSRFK

Assay [1] concerns the target T1, GST-tagged Synd, column-bound (construct with the SH3 domain) (Drosophila) (UniProt Q9VDI1).
T1 sequence: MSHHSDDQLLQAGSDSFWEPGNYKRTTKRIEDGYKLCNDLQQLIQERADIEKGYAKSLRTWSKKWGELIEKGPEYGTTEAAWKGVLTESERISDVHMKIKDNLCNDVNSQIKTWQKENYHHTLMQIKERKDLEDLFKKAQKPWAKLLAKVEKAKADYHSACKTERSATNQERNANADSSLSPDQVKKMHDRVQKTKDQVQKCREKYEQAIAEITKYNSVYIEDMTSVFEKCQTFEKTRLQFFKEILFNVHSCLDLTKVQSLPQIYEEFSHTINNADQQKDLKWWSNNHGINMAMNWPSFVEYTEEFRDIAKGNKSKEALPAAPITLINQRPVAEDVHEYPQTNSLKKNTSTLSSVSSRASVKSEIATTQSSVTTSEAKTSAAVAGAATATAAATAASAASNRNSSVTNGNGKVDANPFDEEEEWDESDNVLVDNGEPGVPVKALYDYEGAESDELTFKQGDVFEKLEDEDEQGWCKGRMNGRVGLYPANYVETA
The assay can be described thus: pull-down; GST-tagged domains of Synd or GST on Glutathione sepharose beads, incubated with fly head lysate 1 h at 4 °C; 20 mM Tris Cl pH 7.5, 100 mM NaCl, 0.5% NP40, 0.5 mM EDTA; western blot with anti-Wsp antibody; only the target purified. A general note: In western blotting, separated proteins are transferred to a membrane and probed.

In assay [2] the target is GST-shibire PRD (proline-rich domain of Drosophila dynamin) (Drosophila) (UniProt P27619). The assay can be described thus: pull-down; GST-Shi-PRD immobilized on glutathione-sepharose beads, incubated with Drosophila adult head lysate 1 h at 4 °C; 20 mM Tris Cl pH 7.5, 100 mM NaCl, 0.5% NP40, 0.5 mM EDTA; western blot with anti-Synd antibody; only the target purified.

These are yes or no findings as the source states them, for the method shown. Binding seen in cells or lysates may run through a third protein. Binding can be weak; no strength is given. For some assays here: Sequences can lack the tags named with a protein.

Regarding Drosophila WASp (Wsp), endogenous, the binding entry in assay [1] is “binds”.

B1: Drosophila syndapin (Synd), endogenous (protein, UniProt Q9VDI1 1-494)
chain: T1 sequence
As for B1, in assay [2], the binding result is recorded as “binds”.
